Nine molecules from PubChem BioAssay AID248 (DTP/NCI, 2004) can be followed below.

The assay relates to L1210 leukemia ip in BDF1 mice, survival T/C. The assay can be described thus: NCI In Vivo Anticancer Drug Screen. Data for tumor model L1210 Leukemia (intraperitoneal) in B6D2F1 (BDF1) mice. Particulars: T/C endpoint: mean survival time, higher T/C = longer survival.
Setting [1] is: dose: 500.0 mg/kg/injection, schedule: Q01DX Z (ip), vehicle: saline.
Where [2] appears, read: dose: 50.0 mg/kg/injection, schedule: Q01DX001 (ip), vehicle: saline.
[3] abbreviates: dose: 100.0 mg/kg/injection, schedule: Q01DX001 (ip), vehicle: saline.
[4] abbreviates: dose: 200.0 mg/kg/injection, schedule: Q01DX001 (ip), vehicle: saline.

The list does not hold the whole screen: its compounds were picked by chemical class. Not every dose and run of a compound is shown. T/C: endpoint of the treated group in % of that of the vehicle group. Some entries give survivors of the animals treated and no T/C: the source holds a T/C of zero for them, seemingly a mark for toxic or unscored doses. Some doses without a T/C left all or most animals alive at the check, yet need not have been tolerated: the source hardly ever lists a survival T/C far under the control, and the zero likely stands for such cases as well. Counts of survivors are from the toxicity check (mostly the fifth day) where no day follows; animals may have died later. Schedule codes are those of the source, read here as Q, the interval in days (D) or hours (H), X, the number of doses. Some schedules carry Z or #; the key to these is not given. Where survival is the endpoint, this PubChem deposit counts one and a half times the control or more as active, and values a quarter to a half above the control carry no call in these data; other NCI protocols may use other cut-offs. Signs of the kind (2×) give the number of equal values in this list. Some entries hold several experiments; the results are listed from low to high. Some T/C values carry the count of animals alive at the toxicity check (mostly the fifth day); without a count or a note in brackets, all were alive then.

As to `NP(=O)(OCCCl)N(CCCl)CCCl` (stereo not drawn), the T/C runs as follows: (dose: 62.5 mg/kg/injection, schedule: Q01DX Z (ip), vehicle: saline) 110 % of control; (dose: 125.0 mg/kg/injection, schedule: Q01DX Z (ip), vehicle: saline) 110 % of control; (dose: 250.0 mg/kg/injection, schedule: Q01DX Z (ip), vehicle: saline) 109 and 113 % of control. Besides, the survivor count by setting is: under setting [1], 6 of 6; (dose: 750.0 mg/kg/injection, schedule: Q01DX Z (ip), vehicle: saline) 0 of 6.
For the molecule `O=C(O)CCCC(=O)SCCCl`, under setting [2], the survivor count was 4 of 4. For the same molecule, the T/C was 93 % of control under setting [3]; 88 % of control under setting [4]; 88 % of control (dose: 400.0 mg/kg/injection, schedule: Q01DX001 (ip), vehicle: saline).
In the case of `CCN(CCCl)CCOc1ccc([N+](=O)[O-])cc1`, the T/C by setting is: (dose: 3.13 mg/kg/injection, schedule: Q01DX009 (ip), vehicle: saline) 98 % of control; (dose: 6.25 mg/kg/injection, schedule: Q01DX009 (ip), vehicle: saline) 129 % of control; (dose: 12.5 mg/kg/injection, schedule: Q01DX009 (ip), vehicle: saline with Tween-80) 97 % of control. For the same molecule, the survivor count is, setting by setting: (dose: 12.5 mg/kg/injection, schedule: Q01DX009 (ip), vehicle: saline) 3 of 6; (dose: 25.0 mg/kg/injection, schedule: Q01DX009 (ip), vehicle: saline with Tween-80) 2 of 6; (dose: 50.0 mg/kg/injection, schedule: Q01DX009 (ip), vehicle: saline with Tween-80) 1 of 6.
As for `NCCF`, the T/C runs as follows: (dose: 1.25 mg/kg/injection, schedule: Q01DX001 (ip), vehicle: saline) 95 % of control; (dose: 1.25 mg/kg/injection, schedule: Q04DX003 (ip), vehicle: Klucel (hydroxypropylcellulose) (HPC)) 94 % of control; (dose: 1.5 mg/kg/injection, schedule: Q01DX009 (ip), vehicle: saline) 113 % of control; (dose: 2.2 mg/kg/injection, schedule: Q01DX009 (ip), vehicle: saline) 115 and 125 % of control; (dose: 2.2 mg/kg/injection, schedule: Q04DX003 (ip), vehicle: saline) 108 % of control; (dose: 2.5 mg/kg/injection, schedule: Q01DX001 (ip), vehicle: saline) 101 % of control. The T/C was 96 % of control (dose: 2.5 mg/kg/injection, schedule: Q04DX003 (ip), vehicle: Klucel (hydroxypropylcellulose) (HPC)); 97 % of control (dose: 2.5 mg/kg/injection, schedule: Q04DX003 (ip), vehicle: saline); 127 and 142 % of control (dose: 3.3 mg/kg/injection, schedule: Q01DX009 (ip), vehicle: saline); 120 % of control (dose: 3.3 mg/kg/injection, schedule: Q04DX003 (ip), vehicle: saline); 142 % of control [4 of 6 alive] (dose: 4.1 mg/kg/injection, schedule: Q01DX009 (ip), vehicle: saline); 101 % of control (dose: 5.0 mg/kg/injection, schedule: Q01DX001 (ip), vehicle: saline). In addition, the T/C (dose: 5.0 mg/kg/injection, schedule: Q04DX003 (ip), vehicle: Klucel (hydroxypropylcellulose) (HPC)) was 93 % of control; the T/C (dose: 5.0 mg/kg/injection, schedule: Q04DX003 (ip), vehicle: saline) is 138 % of control (2×); the T/C (dose: 10.0 mg/kg/injection, schedule: Q01DX001 (ip), vehicle: saline) was 114 % of control [5 of 6 alive]; the T/C (dose: 10.0 mg/kg/injection, schedule: Q04DX003 (ip), vehicle: Klucel (hydroxypropylcellulose) (HPC)) was 107 % of control. For the same molecule, the survivor count (dose: 5.0 mg/kg/injection, schedule: Q01DX009 (ip), vehicle: saline) is 3 of 6; the survivor count (dose: 7.5 mg/kg/injection, schedule: Q01DX009 (ip), vehicle: saline) is reported as 0 of 6; the survivor count (dose: 7.5 mg/kg/injection, schedule: Q04DX003 (ip), vehicle: saline) is listed as 2 of 6; the survivor count (dose: 10.0 mg/kg/injection, schedule: Q04DX003 (ip), vehicle: saline) is recorded as 0 of 6; the survivor count (dose: 20.0 mg/kg/injection, schedule: Q01DX001 (ip), vehicle: saline) was 2 of 6.
With `O=[N+]([O-])c1c(Cl)c(O)c(Cl)c([N+](=O)[O-])c1Nc1c([N+](=O)[O-])c(Cl)c(O)c(Cl)c1[N+](=O)[O-]`, the T/C (dose: 75.0 mg/kg/injection, schedule: Q01DX001 (ip), vehicle: carboxymethylcellulose (CMC)) was 102 % of control and the T/C (dose: 150.0 mg/kg/injection, schedule: Q01DX001 (ip), vehicle: carboxymethylcellulose (CMC)) is 111 % of control. Also, for the setting “dose: 300.0 mg/kg/injection, schedule: Q01DX001 (ip), vehicle: carboxymethylcellulose (CMC)”, the survivor count was 1 of 6.
`NC(N)=NCCN[N+](=O)[O-]`: the T/C runs as follows: under setting [2], 100 % of control; under setting [3], 100 % of control; under setting [4], 105 % of control.
As to `CC(C)SC(OC(=O)COc1ccc(Cl)cc1Cl)C(Cl)(Cl)Cl` (stereo not drawn), the T/C by setting is: (dose: 100.0 mg/kg/injection, schedule: Q01DX009 (ip), vehicle: other) 90 % of control; (dose: 100.0 mg/kg/injection, schedule: Q04DX003 (ip), vehicle: other) 92 % of control; (dose: 200.0 mg/kg/injection, schedule: Q01DX009 (ip), vehicle: other) 95 % of control; (dose: 200.0 mg/kg/injection, schedule: Q04DX003 (ip), vehicle: other) 100 % of control; (dose: 400.0 mg/kg/injection, schedule: Q04DX003 (ip), vehicle: other) 108 % of control. Moreover, the survivor count (dose: 400.0 mg/kg/injection, schedule: Q01DX009 (ip), vehicle: other) was 6 of 6.
In the case of `N=C(N[N+](=O)[O-])N(CCN1CCN=C1N[N+](=O)[O-])N=O`, the T/C reads like this: (dose: 15.0 mg/kg/injection, schedule: Q01DX Z (ip), vehicle: methylcellulose (MC)) 110 % of control; (dose: 31.0 mg/kg/injection, schedule: Q01DX Z (ip), vehicle: methylcellulose (MC)) 111 % of control; (dose: 62.0 mg/kg/injection, schedule: Q01DX Z (ip), vehicle: methylcellulose (MC)) 114 % of control; (dose: 100.0 mg/kg/injection, schedule: Q04DX003 (ip), vehicle: Klucel (hydroxypropylcellulose) (HPC)) 101 % of control; (dose: 125.0 mg/kg/injection, schedule: Q01DX Z (ip), vehicle: methylcellulose (MC)) 119 % of control [4 of 6 alive]; (dose: 200.0 mg/kg/injection, schedule: Q04DX003 (ip), vehicle: Klucel (hydroxypropylcellulose) (HPC)) 94 % of control. The T/C (dose: 400.0 mg/kg/injection, schedule: Q04DX003 (ip), vehicle: Klucel (hydroxypropylcellulose) (HPC)) was 99 % of control [5 of 6 alive]. Further, the survivor count reads like this: (dose: 250.0 mg/kg/injection, schedule: Q01DX Z (ip), vehicle: methylcellulose (MC)) 0 of 6; (dose: 450.0 mg/kg/injection, schedule: Q01DX Z (ip), vehicle: methylcellulose (MC)) 0 of 6.
On to `CC(C)(C)C(=O)SCCCl`, for which the T/C runs as follows: (dose: 10.0 mg/kg/injection, schedule: Q01DX010 (ip), vehicle: saline) 90 % of control; (dose: 30.0 mg/kg/injection, schedule: Q01DX010 (ip), vehicle: saline) 96 % of control; (dose: 100.0 mg/kg/injection, schedule: Q01DX010 (ip), vehicle: saline) 86 % of control; (dose: 300.0 mg/kg/injection, schedule: Q01DX010 (ip), vehicle: saline) 91 % of control; (dose: 300.0 mg/kg/injection, schedule: Q01DX Z (ip), vehicle: saline) 87 % of control. For the same molecule, the survivor count under setting [1] is 3 of 6.
